Literature values in patent US11859015B2, “Immunogenic WT-1 peptides and methods of use thereof” (MEMORIAL SLOAN KETTERING CANCER CENTER, priority 2013, dated 2024).
At least one peptide structure holds a part that was inferred or is arguable (an end, a ring closure or a residue). No end group written: not given here.

System: T cells
Settings: in the context of HLA-A2402; Doubrovina et al., Blood 2012; cited from earlier work

## NQMNLGATL [reference compound]
  immunogenicity as CD8 T cell epitope: immunogenic CD8 T cell epitope
